No constants are given. Whether binding was seen depends on the method and setting. Some entries that bind do so weakly or less than the wild type.
How the values were obtained:
cynomolgus CCR9 [1] = molecular target: T1, cynomolgus CCR9 (cynomolgus, UniProt Q0H741 1-369); experiment: cell binding by the methods of Example 4
T1 sequence: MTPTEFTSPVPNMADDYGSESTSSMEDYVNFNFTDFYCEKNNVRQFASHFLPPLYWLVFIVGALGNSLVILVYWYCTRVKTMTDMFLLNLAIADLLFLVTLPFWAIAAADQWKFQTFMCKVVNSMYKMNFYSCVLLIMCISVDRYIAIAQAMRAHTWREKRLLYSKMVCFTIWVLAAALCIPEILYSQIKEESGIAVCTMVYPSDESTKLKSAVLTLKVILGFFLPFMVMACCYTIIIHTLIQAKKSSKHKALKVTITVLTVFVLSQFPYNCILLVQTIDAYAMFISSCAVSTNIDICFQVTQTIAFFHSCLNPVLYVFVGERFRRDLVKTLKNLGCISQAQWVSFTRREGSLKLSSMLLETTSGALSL

cynomolgus CCR9 [2] = molecular target: T1, cynomolgus CCR9; experiment: binding to cells expressing cynomolgus CCR9 (Cyno CCR9), FL1 counts against Log M, methods of Example 4
cynomolgus CCR9 [3] = molecular target: T1, cynomolgus CCR9; experiment: binding to cells expressing cynomolgus CCR9A (Cyno CCR9A), FL1 counts against Log M, methods of Example 4

B1: Humanised AB1020243 (AB1020243-fgl) (antibody, V domains shown)
VH: QVQLVQSGAEVKKPGASVKVSCKASGYTFTSYWMHWVRQAPGQGLEWIGVIYPGNSDTRYNQKFKGRVTITRDTSASTAYMELSSLRSEDTAVYYCTRDYYSNYVYYYAMDYWGQGTTVTVSS
VL: DIVMTQTPLSLPVTPGEPASISCRSSQSLVHSNGNTYLHWYLQKPGQSPQLLIYKVSNRFSGVPDRFSGSGSGTDFTLKISRVEAEDVGVYYCSQSTHVPWTFGQGTKLEIK
notes: For LigandTracer it was labelled with DyLight 650 on an engineered cysteine in CH2; also called humanised AB1020243 afuc
In the case of B1, the binding (cynomolgus CCR9 [1]) is reported as “binds” and the binding (cynomolgus CCR9 [2]) is reported as “binds”.

B2: AB243LO0326 (antibody, V domains shown)
VH: QVQLVQSGAEVKKPGASVKVSCKASGYTFTSYWMHWVRQAPGQGLEWIGVIYPGNSDTRYNQKFKGRVTITRDTSASTAYMELSSLRSEDTAVYYCTRDYYSNYVYYYAMDYWGQGTTVTVSS
VL: DIVMTQTPLSLPVTPGEPASISCRSSQSLVHPNRNTYLHWYLQKPGQSPQLLIYKVSNRFSGVPDRFSGSGSGTDFTLKISRVEAEDVGVYYCSQSTHVPWTFGQGTKLEIK
notes: CDR-optimised humanised antibody, a-fuc huIgG1 (afucosylated in all experiments); For LigandTracer it was labelled with DyLight 650 on an engineered cysteine in CH2; also called CDR-optimised AB1020243
With B2 the binding (cynomolgus CCR9 [1]) was “binds” and the binding (cynomolgus CCR9 [3]) was “binds”.

From patent US20240174758A1 (AstraZeneca / MedImmune, published 2024)
